According to PubChem BioAssay AID588499 (NMMLSC, 2011):
Among all 360,000 compounds or so, about 610 (0.17%) were called active. Inconclusive means that the source gave no clear call. Such entries were picked first, then a sample of the others. Rule as the data show it: active = inhibition above about 30%; inconclusive = no clear call, values can overlap the other calls; inactive = below that.

The compounds below were run on Botulinum neurotoxin type A light chain protease (Clostridium botulinum A str. ATCC 3502) (assay: blockers of BoNT/A LC substrate cleavage – biochemical, flow cytometry, MLPCN library, primary screen (AID 588499; also: plate controls were buffer without enzyme for full effect and enzyme alone for no effect)). Details: multiplex microsphere protease substrate cleavage, at 10 µM, stronger effect = higher value.
For `N/C(=N\OC(=O)C1CCCCC1)c1cccnc1`, the inhibition was inconclusive: 0.9%. With `CCOc1cc(S(=O)(=O)NC2CC(C)(C)NC(C)(C)C2)ccc1Cl` the inhibition was inactive: 1%. For `CC(=O)Nc1cccc(NC(=O)C(=O)NCC(c2ccco2)N2CCc3ccccc32)c1` (configuration not stated), the inhibition was inconclusive: 1.4%. For `COCCNC(=O)C1CCCN(C(=O)c2ccc(SC(F)(F)F)cc2)CC1` (configuration not stated), the inhibition was inactive: 0.2%. For `O=C(O)/C=C/C(=O)Nc1ccc(OCc2ccccc2)cc1`, the inhibition was inconclusive: -13.8%. In the case of `CCC(C)(C)n1nnnc1C(c1ccncc1)N1CCN(c2cccc(OC)c2)CC1` (configuration not stated), the inhibition is reported as inconclusive: -1.1%. In the case of `COc1ccc(CNC(=O)C(NS(=O)(=O)c2ccc3c(c2)CCCN3C(C)=O)C(C)C)cc1` (configuration not stated), the inhibition is reported as inconclusive: -2.4%. In the case of `O=C(NCCN1CCOCC1)c1cnn2c(-c3ccccc3)cc(-c3ccccc3)nc12`, the inhibition is reported as inactive: 1.1%. `Cn1cccc1-c1nc2ccccc2[nH]1` was tested, and the inhibition was inconclusive: 35.8%. `CCOC(=O)c1c(C)c(C(=O)N2CCCCCC2)c(C)n1CC` was tested, and the inhibition was inconclusive: 1.4%. For `O=[N+]([O-])c1ccccc1/C=N/n1c(COc2ccccc2)n[nH]c1=S`, the inhibition was inconclusive: -0.1%. For `COC(=O)c1sccc1S(=O)(=O)Nc1ccc(S(N)(=O)=O)cc1`, the inhibition was inconclusive: -5.7%. `Cc1cc(S(=O)(=O)NC2CCN(Cc3ccccc3)CC2)c(C)cc1Cl` was tested, and the inhibition was inconclusive: 15.7%. For `O=C(COc1ccc(F)cc1Cl)Nc1ccc(N2CCOCC2)cc1N1CCOCC1`, the inhibition was inconclusive: 1.8%. `N/C(=N\OC(=O)c1ccc([N+](=O)[O-])cc1)c1ccc(Br)cc1` was tested, and the inhibition was inconclusive: -4%. In the case of `CC1CCc2c(sc3ncnc(N4CCOCC4)c23)C1` (configuration not stated), the inhibition is reported as inconclusive: -1.3%. In the case of `Cc1cc(C)n(C2CCCCC2OC(=O)CCc2ccccc2)n1` (configuration not stated), the inhibition is reported as inconclusive: 32.4%. With `CCCCSc1[nH]c(=O)c(C(=O)OCC)cc1C#N` the inhibition was inconclusive: -1.8%. `Nc1cccnc1Oc1ccc(F)cc1` was tested, and the inhibition was inconclusive: -59.7%. In the case of `NC(=O)c1ccc(NC(=O)CS(=O)(=O)c2cn(CC(=O)N3CCCCC3)c3ccccc23)cc1`, the inhibition is reported as inactive: -3.6%. In the case of `CC(=NNC(=S)N1CCCCCC1)c1ccccn1`, the inhibition is reported as active: 32.5%. In the case of `COc1cc(C(=O)NC2=NCCS2)ccc1OCc1c(C)noc1C`, the inhibition is reported as inconclusive: -0.3%. With `CC(/C=N/NC(=O)Cc1cccn1C)=C\c1ccco1` the inhibition was inconclusive: -1.8%. With `COc1cccc(-c2nnc(SCC(=O)N(C(C)C)C(C)C)o2)c1` the inhibition was inconclusive: -4.5%. `CCOC(=O)CC(=O)Nc1c(C)cc(C)cc1C` was tested, and the inhibition was inconclusive: 6.3%. With `COC(=O)c1ccc(-c2n[nH]c(=O)c3ccccc23)cc1` the inhibition was inconclusive: 1.6%. `Cc1nc(NS(=O)(=O)c2ccc(Cl)s2)c2c3c(sc2n1)CCCC3` was tested, and the inhibition was inactive: 0.3%. With `COc1ccc(/C=N/NC(=O)c2cccc(Br)c2)cc1CN1CCOCC1` the inhibition was inconclusive: 5.7%. `Nc1ncnc(Nc2cccc(C(F)(F)F)c2)n1` was tested, and the inhibition was inconclusive: -3.8%. `CCOc1ccccc1/C=c1\sc2ncnn2c1=O` was tested, and the inhibition was inconclusive: 2.4%. With `CCOC(=O)C1=C(N)OC2=C(C(=O)CCC2)C1c1sccc1C` (configuration not stated) the inhibition was inactive: -0.4%. With `Cc1cc(Cl)ccc1NNC(=O)CCc1ccccc1` the inhibition was inconclusive: -4.5%. In the case of `CCOc1cccc(C(=O)N(Cc2ccc(F)cc2)C2CCS(=O)(=O)C2)c1` (configuration not stated), the inhibition is reported as inconclusive: -3.9%. With `CC(=O)Nc1ccc(NC(=O)C(C)OC(=O)CC23CC4CC(CC(Br)(C4)C2)C3)cc1` (configuration not stated) the inhibition was inactive: -0.2%. `CCOC(=O)c1c(/N=C/c2c(O)n(-c3ccc(F)cc3)c(=S)[nH]c2=O)sc2c1CCCC2` was tested, and the inhibition was active: 101%. `CC(=O)Nc1ccc2nc(NC(=O)COc3ccccc3C)sc2c1` was tested, and the inhibition was inactive: -0.2%. In the case of `COc1ccc(CCNc2nc(-c3sc(C)nc3C)cs2)cc1OC`, the inhibition is reported as inconclusive: -4%. For `CCOC(=O)N1CCN(C(=O)C2CC(c3cc(OC)ccc3OC)=NO2)CC1` (configuration not stated), the inhibition was inconclusive: -0.4%. `CCOC(=O)c1cnc2ccc(OCC)cc2c1NCCCN1CCOCC1` was tested, and the inhibition was inconclusive: -4.4%. In the case of `O=C(Cn1nc(-c2cccc(Cl)c2)ccc1=O)Nc1cccnc1`, the inhibition is reported as inconclusive: -1.4%. With `CC(NC(=O)/C=C/c1ccccc1[N+](=O)[O-])C1CC2CCC1C2` (configuration not stated) the inhibition was inactive: 1%. With `CCn1c(CSc2nc3ccccc3s2)nnc1SCC(=O)OC(C)(C)C` the inhibition was inactive: -3%. `CCOC(=O)C1=C(CC)OC(N)=C(C#N)C1c1ccc(OC)cc1OC` (configuration not stated) was tested, and the inhibition was inconclusive: 5.4%. For `CCN(CC)CCOc1ncnc2c1oc1ccccc12`, the inhibition was inconclusive: 5.6%. With `CCC(NC(=O)NCc1ccc2c(c1)OCO2)(C(F)(F)F)C(F)(F)F` the inhibition was inconclusive: 11.9%. `CCn1c(C)c(C(C)=O)c(N2CCN(c3ccccc3)CC2)nc1=S` was tested, and the inhibition was active: 46.3%. In the case of `Cc1ccc(S(=O)(=O)NCc2c(Cl)cccc2Oc2ccccc2)cc1`, the inhibition is reported as inconclusive: -8.5%. In the case of `CC1COC(Cn2c3ccccc3c3ccccc32)O1` (configuration not stated), the inhibition is reported as inconclusive: -49.7%. With `CCN(CC)S(=O)(=O)c1ccc(Cl)c(C(=O)OC)c1` the inhibition was inconclusive: -2.8%. In the case of `COc1ccc(C(=O)[C@H]2[C@H]3C(=O)N(c4ccc(OC(C)=O)cc4)C(=O)[C@H]3C3C=CC=NN32)cc1` (some centres not stated), the inhibition is reported as inconclusive: 16.6%. With `CCOC(=O)c1c(C)c(C(=O)N2CCC3(CC2)OCCO3)c(C)n1CC` the inhibition was inconclusive: 15.1%. `Cc1c(C(=O)NCCSCc2cccc(C(F)(F)F)c2)cnn1-c1ccc(F)cc1` was tested, and the inhibition was inconclusive: -5.5%. `COCCNC(=S)N/N=C(\C)c1ccccc1O` was tested, and the inhibition was inactive: -1.6%. For `O=C(NC1CCCc2ccccc21)C1CCN(c2c3c(nc4ncnn24)CCC3)CC1` (configuration not stated), the inhibition was inconclusive: 1.7%. For `COC(=O)C(C)Sc1nnc(-c2ccncc2)o1` (configuration not stated), the inhibition was inconclusive: 0.5%. For `Cc1ccc(C2CC(C(F)(F)F)n3nc(C(=O)NCc4ccco4)cc3N2)cc1` (configuration not stated), the inhibition was inconclusive: -4.6%. With `CCCN(CC(=O)Nc1ccc(Cl)cc1Cl)C(=O)c1ccc(=O)[nH]c1` the inhibition was inactive: -4.9%. In the case of `COc1ccc(-c2csc(NC(=O)CSc3nc(C)cs3)n2)cc1`, the inhibition is reported as inconclusive: -6.7%. `NNC(=O)c1csc(Cc2c(Cl)sc3ccc(Cl)cc23)n1` was tested, and the inhibition was inconclusive: -11.6%. With `O=C(O)c1ccc(-c2cccc(Cl)c2)o1` the inhibition was inconclusive: 1%. In the case of `O=C(OCCN1C(=O)c2cccc3c(N4CCOCC4)ccc(c23)C1=O)c1ccc(Cl)cc1`, the inhibition is reported as active: 34.4%. With `COc1ccccc1C(=O)Nc1ccc(Oc2ncnc3sc(-c4ccccc4)cc23)cc1` the inhibition was inconclusive: 0.3%. For `N#Cc1nc(-c2ccccc2F)oc1NCCc1ccccc1`, the inhibition was inconclusive: 26.3%. `CC1CN(C(=O)COC(=O)c2ccc(F)cc2Cl)CC(C)O1` (configuration not stated) was tested, and the inhibition was inactive: -4.7%. `COc1ccc(C(=O)Nc2ccc(OCC(=O)N3CCOCC3)cc2)c(OC)c1OC` was tested, and the inhibition was inactive: -3.2%. With `CN(CC(=O)Nc1cccc(F)c1)C(=O)C1CSC2(C)CCC(=O)N12` (configuration not stated) the inhibition was inconclusive: 2.8%. For `CCc1ccc(-c2nc(CSCC(=O)NCCCN3CCCC3=O)c(C)o2)cc1`, the inhibition was inconclusive: 2.4%. For `CCOc1ccc(OCCC(=O)OCC(=O)NNC(=O)c2ccccc2)cc1`, the inhibition was inconclusive: -0.1%. `CCOc1ccccc1NC(=O)c1ccc(F)c(S(=O)(=O)N2CCC3(CC2)OCCO3)c1` was tested, and the inhibition was inconclusive: -3.8%. `Cc1ccsc1C(=O)OCC(=O)N(Cc1ccccc1)C(C)C` was tested, and the inhibition was inactive: -0.3%. `O=S(=O)(Nc1cccc2ncccc12)c1cccs1` was tested, and the inhibition was inconclusive: -4.4%. In the case of `C/C(CC(=O)Nc1cccnc1)=N/NC(=O)COc1ccc(Cl)cc1Br`, the inhibition is reported as inconclusive: -19.8%. In the case of `Cc1sc2nc(SCC(=O)NCCO)n(C)c(=O)c2c1C`, the inhibition is reported as inconclusive: -0.3%. In the case of `COC(=O)CCCCCN1C(=O)/C(=C\c2ccncc2)SC1=S`, the inhibition is reported as inactive: 2.9%. For `Cc1ccc(-c2[nH]nc3c2C(c2cccnc2)C(C#N)=C(N)O3)cc1` (configuration not stated), the inhibition was inconclusive: 2.8%. `O=C(c1cc(F)cc2c1OCOC2)N1CCN(c2ccc(F)cc2)CC1` was tested, and the inhibition was inconclusive: 14.8%. With `S=c1[nH]nc(-c2ccc3ccccc3n2)n1-c1ccccc1` the inhibition was inactive: 0%. `COC(=O)c1nc(-c2ccccc2)oc1N(C)C` was tested, and the inhibition was inconclusive: 3.5%. In the case of `CCOC(=O)c1nc(-c2ccccc2)sc1C(C)=O`, the inhibition is reported as inconclusive: -10.6%. `Cc1oc2c(c1C(=O)c1ccc(Cl)cc1)C(=O)C(=O)c1ccccc1-2` was tested, and the inhibition was active: 30.1%. In the case of `O=C(Nc1ccc2c(c1)OCO2)c1cccc(S(=O)(=O)N2CCCC2)c1`, the inhibition is reported as inactive: 2.3%. `CCc1nc2c(OCC3COc4ccccc4O3)cccn2c1N(C)C(=O)c1ccc(OC)cc1` (configuration not stated) was tested, and the inhibition was inactive: 0%. For `COc1ccc(OCC(=O)Nc2cccc(-c3nc4ccccc4[nH]3)c2)cc1`, the inhibition was inconclusive: -0.8%. For `Cc1cccc(Nc2nc(N)nc(CN3CCN(C)CC3)n2)c1`, the inhibition was inactive: -1.2%. For `O=C(NC1CCCC1)c1cc2c(ccc3ccccc32)o1`, the inhibition was inactive: -0.5%. For `CCN(CC)c1ccc(/C=C/[N+](=O)[O-])cc1`, the inhibition was active: 65.9%. With `CCN(C[C@H]1N[C@@](Cc2ccccc2)(C(=O)OC)[C@H]2C(=O)N(Cc3ccccc3)C(=O)[C@@H]12)C(=O)COc1ccccc1` the inhibition was inactive: 0.1%. `COc1cccc(C(=O)NCc2ccc3c(c2)cc(C)n3C)c1` was tested, and the inhibition was active: 75.2%. `COCCNC(=O)C1(C)CCCN(Cc2cn(C)c3ccccc23)C1` (configuration not stated) was tested, and the inhibition was inactive: 0.1%. With `CCCc1[nH]n(-c2nc3ccccc3s2)c(=O)c1C=NCCN1CCOCC1` the inhibition was inconclusive: 20.2%. In the case of `COc1ccc(OC)c(NC(=O)c2ccc(S(=O)(=O)N3CCN(C)CC3)cc2)c1`, the inhibition is reported as inactive: 0.5%. In the case of `COc1ccc(NC(=S)N2CCC(C(=O)N3CCCCCC3)CC2)cc1`, the inhibition is reported as inconclusive: -3.4%.
